From doi:10.1101/2021.07.21.453261
No constants are given. Whether binding was seen depends on the method and setting. In cells and extracts the contact can be indirect. A result given as binding can be weak or reduced; the word gives no strength.

Target: TgGRA14 endogenously epitope-tagged at the C-terminus with 6x-HA (ME49Δku80 GRA14-HA6x) (Toxoplasma gondii (ME49))
Assay: co-IP

B1: TgGRA1 (protein, UniProt P13403 25-190)
chain: AEGGDNQSSAVSDRASLFGLLSGGTGQGLGIGESVDLEMMGNTYRVERPTGNPDLLKIAIKASDGSYSEVGNVNVEEVIDTMKSMQRDEDIFLRALNKGETVEEAIEDVAQAEGLNSEQTLQLEDAVSAVASVVQDEMKVIDDVQQLEKDKQQLKDDIGFLTGERE
binding: binds

B2: TgGRA4 (protein, UniProt Q27002 21-345)
chain: GECSFGSHLADMAGLSGRHDKERHQAKKRYYHSMYGNQTPYPYANGQQASPPPQGQLLIIQNPDGSFMIVDQQGVPQVPQAAGGPGSPMNGGYYMPTGVYTAQVVPGTPGHPVQAIPQQPLRTQATATYYHPAAVPPPGPSVFVFTPSSVQPGAEVTPGYSGLQLRQQSQYGYSYPGTTSTPTPPPPASYGYPVFPAFPRLPAFSDSVSVSTEDSGLTGVKDSSSSESTVTPADEAASESEEGDKTSRKSKVKKGILTGLGVAATLAAAAAAAKAVKGFGGTRTSTAPAEAGKTELDDGYRPPPFNPRPSPYAELLKDLERMRKE
binding: binds
